Experimental data taken from paper PMC4703060.

Chains of the proteins cited; added tags and fusions are not shown. Lines headed by an entry give the natural chain unless they say otherwise; changes in a name come on top. Residues count along the entry.
GST-WW1 of human WWP2 (301-333) (O00308, residues 301-333): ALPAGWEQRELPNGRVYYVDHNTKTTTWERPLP
GST-WW2 of human WWP2 (331-363) (O00308, residues 331-363): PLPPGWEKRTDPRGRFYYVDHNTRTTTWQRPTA
GST-WW3 of human WWP2 (406-437) (O00308, residues 406-437): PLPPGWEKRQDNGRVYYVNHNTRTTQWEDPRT
GST-WW4 of human WWP2 (445-477) (O00308, residues 445-477): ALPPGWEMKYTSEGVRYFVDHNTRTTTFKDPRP
UniProt O14641: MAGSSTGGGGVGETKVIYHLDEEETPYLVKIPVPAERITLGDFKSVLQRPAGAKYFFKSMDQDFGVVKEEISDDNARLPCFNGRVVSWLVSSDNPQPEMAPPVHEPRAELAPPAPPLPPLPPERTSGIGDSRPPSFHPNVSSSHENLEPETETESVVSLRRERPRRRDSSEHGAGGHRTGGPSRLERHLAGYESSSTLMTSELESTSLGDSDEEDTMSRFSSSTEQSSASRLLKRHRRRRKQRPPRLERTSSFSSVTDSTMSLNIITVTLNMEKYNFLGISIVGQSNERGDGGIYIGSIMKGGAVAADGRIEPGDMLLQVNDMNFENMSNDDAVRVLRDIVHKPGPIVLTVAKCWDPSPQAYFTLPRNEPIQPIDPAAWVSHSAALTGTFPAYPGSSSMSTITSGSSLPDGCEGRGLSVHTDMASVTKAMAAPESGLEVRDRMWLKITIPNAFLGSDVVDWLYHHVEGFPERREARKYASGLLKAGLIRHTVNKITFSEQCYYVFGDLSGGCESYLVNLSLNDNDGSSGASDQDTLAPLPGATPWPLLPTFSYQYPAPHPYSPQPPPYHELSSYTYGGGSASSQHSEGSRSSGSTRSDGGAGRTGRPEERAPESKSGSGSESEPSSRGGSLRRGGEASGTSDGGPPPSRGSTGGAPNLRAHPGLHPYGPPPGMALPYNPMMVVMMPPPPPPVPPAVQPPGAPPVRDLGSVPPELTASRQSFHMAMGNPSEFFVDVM

What was measured:
[1] = molecular target: GST-WW3 of human WWP2 (406-437) (human) (UniProt O00308); test: pull-down; GST-tagged individual WW domains of WWP2 pre-bound to glutathione-sepharose, incubated with 500 µl lysate of transfected HEK293T cells for 1 h at 4°C; washed three times in lysis buffer; Western blot; only the target purified
[2] = molecular target: GST-WW4 of human WWP2 (445-477) (human) (UniProt O00308); test: as above
[3] = molecular target: GST-WW2 of human WWP2 (331-363) (human) (UniProt O00308); test: as above
[4] = molecular target: GST-WW1 of human WWP2 (301-333) (human) (UniProt O00308); test: as above
[5] = molecular target: human Flag-Dvl2 (wild type) (human) (UniProt O14641); test: co-IP; HEK293ET cells co-transfected with Flag-Dvl2 (wt or mutant) and HA-tagged NEDD4 family ligase; native lysis buffer (20 mM Tris-HCl pH 7.4, 10% glycerol, 200 mM NaCl, 0.2% Triton X-100); Flag-M2 affinity gel for α-Flag IPs, 4°C; Western blot

| binding [1] | binding [2] | binding [3] | binding [4] | binding [5] | Substance |
| --- | --- | --- | --- | --- | --- |
| no binding | no binding | no binding | no binding |  | Flag-Dvl2-PYm (PPxY mutant of Dvl2) (from UniProt O14641) |
|  |  |  |  | binds weakly | HA-NEDD4 (from UniProt P46934-4) (enzyme) |

These are yes or no findings as the source states them, for the method shown. Binding seen in cells or lysates may run through a third protein. For some assays here: Binding calls can cover weak binding; strength is not graded here.
